Among the data in article PMC7819943, “Rice protein-binding microarrays: a tool to detect cis-acting elements near promoter regions in rice” are binding signal values, retold here.

Amino acid sequences for entries named in this document (tags omitted).
UniProt Q0JBA9, entry or part of it: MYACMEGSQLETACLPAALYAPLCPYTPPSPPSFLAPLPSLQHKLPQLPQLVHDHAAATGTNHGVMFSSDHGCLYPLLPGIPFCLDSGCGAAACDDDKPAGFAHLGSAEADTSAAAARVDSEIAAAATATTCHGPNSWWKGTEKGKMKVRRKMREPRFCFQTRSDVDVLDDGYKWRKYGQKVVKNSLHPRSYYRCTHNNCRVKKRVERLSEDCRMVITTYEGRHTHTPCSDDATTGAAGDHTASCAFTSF

Some of the results follow.

The assay concerns the target OsWRKY34 (Oryza sativa, UniProt Q0JBA9 1-250). Kind of assay: protein-binding microarray (RPBM); PBS, 2% BSA, 51.3 ng/ul salmon testes DNA, 50 uM zinc acetate, 200 nM TF, 25 C, 1 h; high values mean tight binding. As to conditions: protein: recombinant; tags: N-terminal polyhistidine and DsRed monomer fusion (pET32a); label: CyDye5-dUTP incorporated in the synthesized complementary strand; 3' TTTTT single-stranded linker to array surface; dsDNA, one strand shown. A digest of the protocol: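 In PBS with 2% BSA, salmon testes DNA and 50 µM zinc acetate, 200 nM protein was incubated on a custom Agilent array at 25 °C for 1 h and then washed off. The array had been made double-stranded by primer extension with Cy5-dUTP and blocked with 2% BSA. The proteins were transcription factors fused N-terminally to polyhistidine and DsRed, expressed in E. coli BL21-CodonPlus and purified on Ni–NTA. The binding signal is per-feature fluorescence intensity (arbitrary units) from an Axon 4000B scanner.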
As for “TGATTTTTTGACAAACATTTGACCTTTCGTCTTATTTAAACGGAGTCACCTAGTGCAG”, the binding signal was 8620 fluorescence intensity (a.u.).

As for “GATAGTAGTTCTTGTCTTGTGGTGCGATCCGGTTTGTCTTCGGAGTCACCTAGTGCAG”, the binding signal is 8890 fluorescence intensity (a.u.).

As for “TACATATCCGTATTTGAGTCGGTTTTTAAGGTCGTTCACTCGGAGTCACCTAGTGCAG”, the binding signal was 8560 fluorescence intensity (a.u.).

As for “TCGGTCTGGTGTATTTTGTGGTGCAATTTAACTCCATAAACGGAGTCACCTAGTGCAG”, the binding signal is 9100 fluorescence intensity (a.u.).

With “ACCCGCACGTCTTCCGCGGCCACGCCACCGTCGATCCCCGCGGAGTCACCTAGTGCAG”, the binding signal was 8620 fluorescence intensity (a.u.).

On to “CAGCAAAAAGGGATTTTTTTTTCTATTCATCTTTGTTAGTCGGAGTCACCTAGTGCAG”, for which the binding signal is 8390 fluorescence intensity (a.u.).

Consider “CGGTTTAATTAGGCTTAAAAGATTCGTCTCGCAAGTTTTTCGGAGTCACCTAGTGCAG”, for which the binding signal was 9820 fluorescence intensity (a.u.).

As to “CACATTTTCTTTTGGGACTTCAGATATTCCTTTTTACATGCGGAGTCACCTAGTGCAG”, the binding signal was 9800 fluorescence intensity (a.u.).

Take “CGGGATGGTGACTACGCCAAGGTCATGCTTGTTTTTGATACGGAGTCACCTAGTGCAG”: the binding signal was 9810 fluorescence intensity (a.u.).

For “TGTTACGTATCAAACCTATCCCTACCCACACTATTGGCCTCGGAGTCACCTAGTGCAG”, the binding signal is 9260 fluorescence intensity (a.u.).

On to “TTATTGTTTTTATTGTCTTTTTTTCTTTATATTTCCAAAACGGAGTCACCTAGTGCAG”, for which the binding signal is 11400 fluorescence intensity (a.u.).

As for “CATTTTCTTGGTTTGGTCTTTTTTATTGTTGGGTGTGTTTCGGAGTCACCTAGTGCAG”, the binding signal was 15500 fluorescence intensity (a.u.).

On to “GCTGTCGTCCCTGCTGTTCTTGGTGTGCTTCTTCACTGTCCGGAGTCACCTAGTGCAG”, for which the binding signal is 13600 fluorescence intensity (a.u.).

Turning to “ACGCTGATTCAATTGTCATCCAATTTCTCGATTTATCTGTCGGAGTCACCTAGTGCAG”, the binding signal was 11400 fluorescence intensity (a.u.).

In the case of “TATATACTTTCATGGGTCTATATTTATATGTATGTATACACGGAGTCACCTAGTGCAG”, the binding signal is 8690 fluorescence intensity (a.u.).

Consider “TGTTGTTCTGTTTTCATAATGGAGATTGCCATGCTTCACACGGAGTCACCTAGTGCAG”, for which the binding signal is 8570 fluorescence intensity (a.u.).

With “ATTCACATTCCATTCCCATCCGGTTGTTCTTGCATGTTCTCGGAGTCACCTAGTGCAG”, the binding signal is 14700 fluorescence intensity (a.u.).

“GCCGTCTCGCCTCCTATTCTGTCGCGACGCCACCACTGCTCGGAGTCACCTAGTGCAG”: the binding signal is 11000 fluorescence intensity (a.u.).

Regarding “ACCTGAATGACTGAATCCTATCTTGACGCTGCAATCTGGACGGAGTCACCTAGTGCAG”, the binding signal was 8190 fluorescence intensity (a.u.).

Take “AACCGGCGGCACGAGGTGGGGAGGGAGTGGAGGGGCCCGACGGAGTCACCTAGTGCAG”: the binding signal was 9170 fluorescence intensity (a.u.).

Take “TACGGTGAACTACTACGCTTCAATCAATTTCCCTTTTCTTCGGAGTCACCTAGTGCAG”: the binding signal was 10800 fluorescence intensity (a.u.).

In the case of “GCGTCGCCTCGTGACCTCCGCTTCTCCGCCGCCGACATCGCGGAGTCACCTAGTGCAG”, the binding signal was 9660 fluorescence intensity (a.u.).

For the sequence “ACTGTTCGGTATTGCTGTTTCGTTATGTCTCGCGCAACGACGGAGTCACCTAGTGCAG”, the binding signal was 9770 fluorescence intensity (a.u.).

“TATTGGGGCTGCCGATTGCACTGCACAGGTTCATTTCTTCCGGAGTCACCTAGTGCAG”: the binding signal was 9320 fluorescence intensity (a.u.).

Consider “AAGGTCGTGTATATTTCTATCATCCAATTATGTCACAACACGGAGTCACCTAGTGCAG”, for which the binding signal was 8820 fluorescence intensity (a.u.).

“CTCTCTCTCTCTCTCTCTCTCTCTCTCTCTCCTCCCAAATCGGAGTCACCTAGTGCAG”: the binding signal is 10300 fluorescence intensity (a.u.).

Turning to “GGTTGAGGGATGTGATTTATCGAGGGTGAGAGTTGAGGGACGGAGTCACCTAGTGCAG”, the binding signal was 9110 fluorescence intensity (a.u.).

“GCCAGTCTGGGTGTTGGTCTGCTTCTTGTTCTGGTGCCGTCGGAGTCACCTAGTGCAG”: the binding signal was 11300 fluorescence intensity (a.u.).

For “ATCCTCTAAGTTTTTTCGCTAGCCAAGTCCACTACTACCTCGGAGTCACCTAGTGCAG”, the binding signal was 10000 fluorescence intensity (a.u.).

Turning to “CCCATCCCCATCCCGATCCCGCCCAACTCGCGCCTCCTTCCGGAGTCACCTAGTGCAG”, the binding signal is 8820 fluorescence intensity (a.u.).

On to “TTTGCTGGTGTTATTCCCCGTTCAAAATCTTCTCATTTTCCGGAGTCACCTAGTGCAG”, for which the binding signal was 11900 fluorescence intensity (a.u.).

For the sequence “TCTTCATGTTACATAATTCTCCTTGTTTAAGTCCATATAACGGAGTCACCTAGTGCAG”, the binding signal is 9140 fluorescence intensity (a.u.).

Turning to “GGAGCGCAAGTGGGAGGCGGTGGAGGAGCTGGCGGCGGGGCGGAGTCACCTAGTGCAG”, the binding signal was 10900 fluorescence intensity (a.u.).

Take “TCTCTGCATGACCTAGATCTATCGAGATAGCTAAACTATACGGAGTCACCTAGTGCAG”: the binding signal was 9400 fluorescence intensity (a.u.).

“TGTTAACATCAAGTAGGAATTCGCCACTACTTTTATTTTTCGGAGTCACCTAGTGCAG”: the binding signal is 8260 fluorescence intensity (a.u.).

As to “TAACTTCCACTCCTATTATTTTTTGTGCGCTACCCAAACACGGAGTCACCTAGTGCAG”, the binding signal is 9190 fluorescence intensity (a.u.).

“GTGTCCCCGTCACTCTCCGGCCAGCGCCTCCACTCCACTCCGGAGTCACCTAGTGCAG”: the binding signal is 9340 fluorescence intensity (a.u.).

For the sequence “AATACTTGCGAGCTCCGATCTCTTCTTCTTCTTCGTGAGCCGGAGTCACCTAGTGCAG”, the binding signal was 8180 fluorescence intensity (a.u.).

In the case of “GTTCATAGTGTCTAATGATTTTTGTTTTCATCCTAACTTCCGGAGTCACCTAGTGCAG”, the binding signal is 8610 fluorescence intensity (a.u.).

For “CCTGTATTTTCTAATCCTCTGTTTTACACATGCATTCCTGCGGAGTCACCTAGTGCAG”, the binding signal is 10800 fluorescence intensity (a.u.).

For “AGTACTATACTATTAATAATACCCGGTCTCACCTATCATACGGAGTCACCTAGTGCAG”, the binding signal is 8520 fluorescence intensity (a.u.).

In the case of “TTTATTTTTGGTTGCTCATGTGTCGTTTTATGGCTTATTGCGGAGTCACCTAGTGCAG”, the binding signal was 11800 fluorescence intensity (a.u.).
